These are yes or no findings as the source states them, for the method shown. In cells and extracts the contact can be indirect. A result given as binding can be weak or reduced; the word gives no strength. For some assays here: Where a sequence is shown, tags or fusion partners need not be part of it.
T1: FLAG-Npas4 (from pBOS-3FLAG-Npas4) (mouse) (UniProt Q8BGD7)
T1 sequence: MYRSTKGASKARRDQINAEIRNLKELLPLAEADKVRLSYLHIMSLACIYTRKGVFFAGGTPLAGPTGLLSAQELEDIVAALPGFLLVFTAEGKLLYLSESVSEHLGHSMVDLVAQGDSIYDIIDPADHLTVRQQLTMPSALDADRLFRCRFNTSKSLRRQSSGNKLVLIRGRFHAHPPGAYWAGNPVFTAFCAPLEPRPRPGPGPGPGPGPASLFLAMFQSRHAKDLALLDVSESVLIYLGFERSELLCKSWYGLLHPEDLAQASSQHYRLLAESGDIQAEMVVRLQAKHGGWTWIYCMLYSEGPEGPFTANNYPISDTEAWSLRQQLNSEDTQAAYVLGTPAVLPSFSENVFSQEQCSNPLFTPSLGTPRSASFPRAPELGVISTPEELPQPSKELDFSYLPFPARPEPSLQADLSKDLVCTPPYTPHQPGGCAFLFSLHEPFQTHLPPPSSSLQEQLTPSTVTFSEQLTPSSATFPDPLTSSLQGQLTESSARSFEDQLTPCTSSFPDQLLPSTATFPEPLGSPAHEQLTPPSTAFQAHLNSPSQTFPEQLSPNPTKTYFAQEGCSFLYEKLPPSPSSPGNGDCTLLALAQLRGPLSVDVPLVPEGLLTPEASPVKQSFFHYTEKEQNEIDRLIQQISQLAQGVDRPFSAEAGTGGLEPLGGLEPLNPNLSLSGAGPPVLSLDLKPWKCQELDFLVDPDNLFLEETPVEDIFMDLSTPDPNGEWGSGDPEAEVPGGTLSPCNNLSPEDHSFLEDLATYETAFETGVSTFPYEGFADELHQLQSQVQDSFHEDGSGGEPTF

T2: Npas4 segment (amino acids 496-668), deletion mutant of FLAG-Npas4 (mouse) (UniProt Q8BGD7)
T2 sequence: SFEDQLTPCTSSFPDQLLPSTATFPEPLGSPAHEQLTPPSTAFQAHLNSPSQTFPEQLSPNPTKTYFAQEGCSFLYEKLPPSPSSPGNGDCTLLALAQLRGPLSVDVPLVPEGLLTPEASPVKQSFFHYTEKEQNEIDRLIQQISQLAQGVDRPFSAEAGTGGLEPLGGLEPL


How the values were obtained:
[1] = target: T1, FLAG-Npas4 (from pBOS-3FLAG-Npas4) (mouse); test: co-IP; HEK293T cells co-transfected with Myc-IPAS and FLAG-Npas4 plasmids or their deletions; extracts 48 h after transfection; immunoprecipitation with anti-FLAG antibody, immunoblotting with anti-Myc antibody
[2] = target: T2, Npas4 segment (amino acids 496-668), deletion mutant of FLAG-Npas4 (mouse); test: as above
FLAG-IPAS (mouse) = test: co-IP; HEK293T cells transfected with FLAG-IPAS alone; extracts 48 h after transfection; immunoprecipitation with anti-FLAG antibody, immunoblotting for endogenous Npas4 with anti-Npas4 antibody

Row | Molecule | binding [1] | binding [2] | binding (FLAG-IPAS (mouse))
1 | IPAS C (C-terminal deletion mutant of Myc-IPAS) (mouse) (domain or fragment) | binds |  | 
2 | IPAS N (N-terminal deletion mutant of Myc-IPAS) (mouse) (domain or fragment) | binds |  | 
3 | Myc-IPAS (inhibitory PAS domain protein, from pBOS-3Myc-IPAS) (mouse) | binds | binds | 
4 | endogenous Npas4 of HEK293T cells (protein, UniProt Q8IUM7 1-802) MYRSTKGASKARRDQINAEIRNLKELLPLAEADKVRLSYLHIMSLACIYTRKGVFFAGGTPLAGPTGLLSAQELEDIVAALPGFLLVFTAEGKLLYLSESVSEHLGHSMVDLVAQGDSIYDIIDPADHLTVRQQLTLPSALDTDRLFRCRFNTSKSLRRQSAGNKLVLIRGRFHAHPPGAYWAGNPVFTAFCAPLEPRPRPGPGPGPGPASLFLAMFQSRHAKDLALLDISESVLIYLGFERSELLCKSWYGLLHPEDLAHASAQHYRLLAESGDIQAEMVVRLQAKTGGWAWIYCLLYSEGPEGPITANNYPISDMEAWSLRQQLNSEDTQAAYVLGTPTMLPSFPENILSQEECSSTNPLFTAALGAPRSTSFPSAPELSVVSASEELPRPSKELDFSYLTFPSGPEPSLQAELSKDLVCTPPYTPHQPGGCAFLFSLHEPFQTHLPTPSSTLQEQLTPSTATFSDQLTPSSATFPDPLTSPLQGQLTETSVRSYEDQLTPCTSTFPDQLLPSTATFPEPLGSPAHEQLTPPSTAFQAHLDSPSQTFPEQLSPNPTKTYFAQEGCSFLYEKLPPSPSSPGNGDCTLLALAQLRGPLSVDVPLVPEGLLTPEASPVKQSFFHYSEKEQNEIDRLIQQISQLAQGMDRPFSAEAGTGGLEPLGGLEPLDSNLSLSGAGPPVLSLDLKPWKCQELDFLADPDNMFLEETPVEDIFMDLSTPDPSEEWGSGDPEAEGPGGAPSPCNNLSPEDHSFLEDLATYETAFETGVSAFPYDGFTDELHQLQSQVQDSFHEDGSGGEPTF |  |  | binds
